In publication PMC4938514:
Changes are numbered by the printed parent chain. In names and notes the source's numbering stands. These are yes or no findings as the source states them, for the method shown. For part of these data: In cells and extracts the contact can be indirect. Some entries that bind do so weakly or less than the wild type. For part of these data: Tags and fused reporters may be left off the sequences shown. Values belong to the molecule of their own block, whether it stands above or below them.

By UniProt entry, the sequences of proteins in these tests, tags left out.
UniProt Q03173: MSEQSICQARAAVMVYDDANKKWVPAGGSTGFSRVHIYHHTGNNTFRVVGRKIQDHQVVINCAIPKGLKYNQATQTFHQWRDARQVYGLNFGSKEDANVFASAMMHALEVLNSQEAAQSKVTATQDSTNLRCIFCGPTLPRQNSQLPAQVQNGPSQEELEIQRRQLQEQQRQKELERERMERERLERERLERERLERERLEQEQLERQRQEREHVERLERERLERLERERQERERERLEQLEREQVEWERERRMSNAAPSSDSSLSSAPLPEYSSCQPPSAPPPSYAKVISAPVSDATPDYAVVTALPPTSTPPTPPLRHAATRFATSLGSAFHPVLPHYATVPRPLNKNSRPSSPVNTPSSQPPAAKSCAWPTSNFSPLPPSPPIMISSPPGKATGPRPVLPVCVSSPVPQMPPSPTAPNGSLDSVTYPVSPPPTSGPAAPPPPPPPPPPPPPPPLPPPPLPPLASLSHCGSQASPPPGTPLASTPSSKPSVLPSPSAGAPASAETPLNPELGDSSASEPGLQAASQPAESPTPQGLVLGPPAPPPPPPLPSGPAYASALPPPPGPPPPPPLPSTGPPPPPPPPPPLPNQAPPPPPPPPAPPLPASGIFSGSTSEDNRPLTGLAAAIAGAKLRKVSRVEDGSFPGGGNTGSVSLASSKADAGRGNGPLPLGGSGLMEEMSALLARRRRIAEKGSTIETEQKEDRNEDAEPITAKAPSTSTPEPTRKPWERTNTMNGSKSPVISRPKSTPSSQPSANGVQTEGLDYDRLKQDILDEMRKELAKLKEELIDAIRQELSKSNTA
UniProt P00520: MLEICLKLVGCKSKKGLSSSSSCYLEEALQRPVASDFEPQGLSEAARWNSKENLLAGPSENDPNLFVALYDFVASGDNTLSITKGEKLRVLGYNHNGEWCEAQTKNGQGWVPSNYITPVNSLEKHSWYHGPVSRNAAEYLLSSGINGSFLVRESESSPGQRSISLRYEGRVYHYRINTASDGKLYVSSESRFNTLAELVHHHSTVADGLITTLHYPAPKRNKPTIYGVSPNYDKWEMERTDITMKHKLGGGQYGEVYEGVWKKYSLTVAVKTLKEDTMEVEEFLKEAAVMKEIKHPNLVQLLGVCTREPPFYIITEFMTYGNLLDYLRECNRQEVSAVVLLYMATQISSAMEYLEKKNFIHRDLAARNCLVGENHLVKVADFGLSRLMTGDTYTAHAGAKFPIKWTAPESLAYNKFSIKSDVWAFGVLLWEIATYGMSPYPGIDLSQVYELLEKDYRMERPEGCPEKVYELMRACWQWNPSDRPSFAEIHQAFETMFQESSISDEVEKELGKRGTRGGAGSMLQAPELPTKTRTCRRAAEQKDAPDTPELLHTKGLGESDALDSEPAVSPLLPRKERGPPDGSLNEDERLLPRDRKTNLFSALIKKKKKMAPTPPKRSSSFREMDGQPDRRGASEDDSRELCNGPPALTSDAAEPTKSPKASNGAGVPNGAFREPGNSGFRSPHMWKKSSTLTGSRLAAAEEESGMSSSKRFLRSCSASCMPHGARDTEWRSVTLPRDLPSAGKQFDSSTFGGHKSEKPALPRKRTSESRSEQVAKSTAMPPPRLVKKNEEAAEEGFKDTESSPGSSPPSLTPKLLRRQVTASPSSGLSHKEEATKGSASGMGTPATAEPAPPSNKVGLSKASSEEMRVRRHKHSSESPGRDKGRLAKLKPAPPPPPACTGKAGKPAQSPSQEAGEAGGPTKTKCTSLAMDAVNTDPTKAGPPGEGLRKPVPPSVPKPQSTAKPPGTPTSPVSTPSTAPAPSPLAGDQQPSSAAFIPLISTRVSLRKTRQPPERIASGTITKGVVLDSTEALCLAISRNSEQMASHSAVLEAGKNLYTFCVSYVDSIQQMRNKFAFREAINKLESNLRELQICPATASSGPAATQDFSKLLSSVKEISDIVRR

Legend:
myc-Sema6A-FL = biological target: T1, myc-Sema6A-FL (UniProt O35464); experiment: co-IP; co-transfected COS-7 cells, serum-starved 16h, stimulated with conditioned medium with PlexinA2-EC for 20 min at 37°C (untreated cells alongside; with or without co-transfected PlxnA2), lysed; 2h at 4°C with anti-myc or anti-V5
T1 sequence: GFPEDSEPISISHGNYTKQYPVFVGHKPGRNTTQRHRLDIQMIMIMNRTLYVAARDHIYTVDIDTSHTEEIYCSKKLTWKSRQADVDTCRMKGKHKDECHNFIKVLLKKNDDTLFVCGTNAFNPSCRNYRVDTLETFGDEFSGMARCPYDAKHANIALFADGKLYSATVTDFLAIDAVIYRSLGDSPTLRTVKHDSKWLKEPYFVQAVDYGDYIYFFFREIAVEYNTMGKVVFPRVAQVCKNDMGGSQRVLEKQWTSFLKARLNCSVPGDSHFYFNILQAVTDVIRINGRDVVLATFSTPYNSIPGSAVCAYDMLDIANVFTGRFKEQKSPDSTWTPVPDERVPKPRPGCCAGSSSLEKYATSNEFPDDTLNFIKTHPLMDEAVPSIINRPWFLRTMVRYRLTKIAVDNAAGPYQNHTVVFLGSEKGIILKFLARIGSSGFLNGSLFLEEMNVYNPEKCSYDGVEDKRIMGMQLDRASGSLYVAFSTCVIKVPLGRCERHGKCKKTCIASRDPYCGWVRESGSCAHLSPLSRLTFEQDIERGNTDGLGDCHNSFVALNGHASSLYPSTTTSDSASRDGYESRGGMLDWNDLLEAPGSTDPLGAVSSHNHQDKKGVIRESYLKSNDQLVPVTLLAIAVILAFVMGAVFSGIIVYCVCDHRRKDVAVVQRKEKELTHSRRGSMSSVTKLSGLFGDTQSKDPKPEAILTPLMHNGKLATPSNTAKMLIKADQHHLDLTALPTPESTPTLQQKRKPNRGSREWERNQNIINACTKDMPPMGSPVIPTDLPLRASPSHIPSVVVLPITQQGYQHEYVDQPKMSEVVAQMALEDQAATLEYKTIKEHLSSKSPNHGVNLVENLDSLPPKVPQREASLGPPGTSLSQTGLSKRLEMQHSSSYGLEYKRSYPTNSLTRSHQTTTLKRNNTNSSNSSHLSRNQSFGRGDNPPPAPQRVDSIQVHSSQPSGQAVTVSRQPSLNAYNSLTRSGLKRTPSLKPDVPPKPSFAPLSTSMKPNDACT

[1] = biological target: T2, endogenous Sema6A of mouse cerebellum (mouse (endogenous in cerebellum)) (UniProt O35464); experiment: co-IP; endogenous proteins; extracts of P6 mouse cerebellum; IP with anti-Sema6A antibodies
T2 sequence: T1 sequence

[2] = biological target: T3, Sema6A-FL (full-length Semaphorin-6A), as transfected for the in situ binding and the Sema6A/PlxnA2 co-immunoprecipitations (UniProt O35464); experiment: co-IP; co-transfected COS-7 cells lysed in NP-40 buffer (10mM HEPES pH 7.5; 100mM NaCl, 2mM EDTA, 0.5% NP-40); 2h at 4°C with anti-PlexinA2 or anti-Sema6A; protein A/G sepharose; blots with anti-PlxnA2 and anti-Sema6A
T3 sequence: T1 sequence

[3] = biological target: T3, Sema6A-FL (full-length Semaphorin-6A), as transfected for the in situ binding and the Sema6A/PlxnA2 co-immunoprecipitations; experiment: in situ binding of AP fusion proteins to cells; conditioned media of HEK293 cells with Sema6A-AP or PlxnA2-AP applied to COS-7 cells transfected with combinations of Sema6A and PlxnA2 constructs; bound AP seen in situ
PlxnA2-A396E = PlxnA2-A396E (UniProt P70207); experiment: co-IP; co-transfected COS-7 cells lysed in NP-40 buffer (10mM HEPES pH 7.5; 100mM NaCl, 2mM EDTA, 0.5% NP-40); 2h at 4°C with anti-PlexinA2 or anti-Sema6A; protein A/G sepharose; blots with anti-PlxnA2 and anti-Sema6A
[4] = biological target: PlxnA2-FL (full-length Plexin-A2) (UniProt P70207); experiment: as above
[5] = biological target: endogenous PlxnA2 of mouse cerebellum (mouse (endogenous in cerebellum)) (UniProt P70207); experiment: co-IP; endogenous proteins; lysates of P5 mouse cerebellum or EGL explants (50 mM Tris pH 7.6; 1mM EDTA, 1% Triton x-100); 16h at 4°C with anti-PlexinA2

Molecule: Full-length V5-tagged Mena (Mena-V5) (from UniProt Q03173 1-802)
- binding (myc-Sema6A-FL): binds

Molecule: endogenous Abl of mouse cerebellum (from UniProt P00520 1-1123) (enzyme)
- binding [1]: binds

B2: Sema6A-FL (full-length Semaphorin-6A), as transfected for the in situ binding and the Sema6A/PlxnA2 co-immunoprecipitations (protein, UniProt O35464 19-1031)
chain: T1 sequence
- binding (PlxnA2-A396E): binds
- binding [4]: binds

B5: endogenous Sema6A of mouse cerebellum (protein, UniProt O35464 19-1031)
chain: T1 sequence
- binding [5]: binds

Other lines, results leading:

- binding [2]: binds
Molecule: PlxnA2-FL (full-length Plexin-A2) (from UniProt P70207 35-1894) (receptor)

- binding [3]: binds
B1: PlxnA2-EC-AP-Fc (extracellular domain of PlxnA2 fused to alkaline phosphatase) (Fc fusion, UniProt P70207 35-1237)
chain: MPQYSTFHSENRDWTFNHLTVHRRTGAVYVGAINRVYKLTGNLTIQVAHKTGPEEDNKACYPPLIVQPCSEVLTLTNNVNKLLIIDYSENRLLACGSLYQGVCKLLRLDDLFILVEPSHKKEHYLSSVNKTGTMYGVIVRSEGEDGKLFIGTAVDGKQDYFPTLSSRKLPRDPESSAMLDYELHSDFVSSLIKIPSDTLALVSHFDIFYIYGFASGGFVYFLTVQPETPDGMAINSAGDLFYTSRIVRLCKDDPKFHSYVSLPFGCTRAGVEYRLLQAAYLAKPGEALAQAFNISSDEDVLFAIFSKGQKQYHHPPDDSALCAFPIRAINLQIKERLQSCYHGEGNLELNWLLGKDVQCTKAPVPIDDNFCGLDINQPLGGSTPVEGLTLYTTSRDRLTSVASYVYNGYSVVFVGTKSGKLKKIRADGPPHGGVQYEMVSVFKDGSPILRDMAFSINQLYLYVMSERQVTRVPVESCEQYTTCGECLSSGDPHCGWCALHNMCSRRDKCQRAWEANRFAASISQCMSLEVHPNSISVSDHSRLLSLVVNDAPNLSEGIACAFGNLTEVEGQVSGSQVICISPGPKDVPVIPLDQDWFGLELQLRSKETGKIFVSTEFKFYNCSAHQLCLSCVNSAFRCHWCKYRNLCTHDPTTCSFQEGRINVSEDCPQLVPTEEILIPVGEVKPITLKARNLPQPQSGQRGYECVLSIQGAVHRVPALRFNSSSVQCQNSSYQYDGMDISNLAVDFAVVWNGNFIIDNPQDLKVHLYKCAAQRESCGLCLKADHKFECGWCSGERRCTLHQHCPSTSSPWLDWSSHNVKCSNPQITEILTVSGPPEGGTRVTIHGVNLGLDFSEIAHHVQVAGVPCTPIPGEYIIAEQIVCEMGHAVIGTTSGPVRLCIGECKPEFMTKSHQQYTFVNPSVLSLSPIRGPESGGTMVTITGHYLGAGSSVAVYLGNQTCEFYGRSMNEIVCVSPPSSNGLGPVPVSVSVDRARVDSSLQFEYIDDPRVQRIEPEWSITSGHTPLTITGFNLDVIQEPRVRVKFNGKESVNVCTVVNTTTLTCLAPSLTSDYRPGLDTVERPDEFGFLFNNVQSLLIYNDTKFIYYPNPTFELLSPTGILDQKPGSPIILKGKNLCPPASGGAKLNYTVMIGETPCTVTVSETQLLCEPPNLTGQHKVMVHVGGMVFSPGSVSVISDSLLTLP

- binding [4]: binds
B3: myc-tagged Sema6A-I322E (protein, UniProt O35464 19-1031)
chain: T1 sequence with I304E

- binding [4]: binds
B4: myc-tagged Sema6A-K393D (protein, UniProt O35464 19-1031)
chain: T1 sequence with K375D
